Experimental data: PubChem BioAssay AID192 (DTP/NCI, 2004)
The list shows only some results of the screen, not a fair sample: it gathers tests that were run many times, whatever their T/C, doses with no T/C, and many T/C values between a quarter and a half above the control. Further doses and runs are listed elsewhere. T/C: endpoint of the treated group in % of that of the vehicle group. Some entries give survivors of the animals treated and no T/C: the source files T/C as zero there, which appears to mark a toxic dose or a test without result, not a measured value. Some doses without a T/C left all or most animals alive at the check, yet need not have been tolerated: the source hardly ever lists a survival T/C far under the control, and the zero likely stands for such cases as well. Survivors were counted at the toxicity check, usually on the fifth day, unless a day is given; later deaths do not show. Schedule codes are those of the source, taken here to give the interval after Q, in days (D) or hours (H), and the number of doses after X. Where survival is the endpoint, this PubChem deposit counts one and a half times the control or more as active, and values a quarter to a half above the control carry no call in these data; other NCI protocols may use other cut-offs. Some T/C values carry the count of animals alive at the toxicity check (mostly the fifth day); where none is given, no animal had died by that day.

Test system: BDF1 mice, B16 melanoma ip, median survival T/C
Test: NCI In Vivo Anticancer Drug Screen. Data for tumor model B16 Melanoma (intraperitoneal) in B6D2F1 (BDF1) mice
Settings: T/C endpoint: median survival time, higher T/C = longer survival
Procedure: The antitumor activity of compounds was measured in mice bearing transplantable tumors. Survival or tumor size were measured and the results are expressed as the measurement made in the treated group (T) divided by the measurement made in the vehicle treated control group (C). The tumor model used in this assay is B16 Melanoma (intraperitoneal) in B6D2F1 (BDF1) mice

[1] = dose: 100.0 mg/kg/injection, schedule: Q01DX009 (ip), vehicle: saline
[2] = dose: 200.0 mg/kg/injection, schedule: Q01DX009 (ip), vehicle: Klucel (hydroxypropylcellulose) (HPC)
[3] = dose: 400.0 mg/kg/injection, schedule: Q01DX009 (ip), vehicle: Klucel (hydroxypropylcellulose) (HPC)
[4] = dose: 200.0 mg/kg/injection, schedule: Q01DX009 (ip), vehicle: saline with Tween-80
[5] = dose: 100.0 mg/kg/injection, schedule: Q01DX009 (ip), vehicle: Klucel (hydroxypropylcellulose) (HPC)
[6] = dose: 400.0 mg/kg/injection, schedule: Q01DX009 (ip), vehicle: saline with Tween-80

## Cc1c(C(=O)O)cc2n(c1=O)Cc1cc3ccccc3nc1-2
dose: 200.0 mg/kg/injection, schedule: Q04DX003 (ip), vehicle: saline with Tween-80
  survivor count: 10 of 10
dose: 400.0 mg/kg/injection, schedule: Q04DX003 (ip), vehicle: saline with Tween-80
  survivor count: 3 of 10

## C=CCOP(=O)(N1CC1C)N1CC1C (centres undefined)
[1]
  survivor count: 10 of 10
dose: 200.0 mg/kg/injection, schedule: Q04DX003 (ip), vehicle: saline
  survivor count: 10 of 10

## Cc1ccc(NCC2(/N=C/c3ccccc3)OC(CO)C(O)C2O)cc1 (centres undefined)
dose: 177.0 mg/kg/injection, schedule: Q01DX009 (ip), vehicle: Klucel (hydroxypropylcellulose) (HPC)
  T/C: 134 % of control
[2]
  survivor count: 5 of 10
dose: 266.0 mg/kg/injection, schedule: Q01DX009 (ip), vehicle: Klucel (hydroxypropylcellulose) (HPC)
  T/C: 137 % of control [9 of 10 alive]
[3]
  T/C: 141 % of control [8 of 10 alive]
  survivor count: 2 of 10
dose: 600.0 mg/kg/injection, schedule: Q01DX009 (ip), vehicle: Klucel (hydroxypropylcellulose) (HPC)
  survivor count: 8 of 10

## Nc1ncnc2c(C3OC(CO)C(O)C3O)[nH]nc12 (centres undefined)
dose: 8.0 mg/kg/injection, schedule: Q01DX009 (ip), vehicle: saline
  T/C: 147 % of control
dose: 16.0 mg/kg/injection, schedule: Q01DX009 (ip), vehicle: saline
  survivor count: 6 of 6
dose: 32.0 mg/kg/injection, schedule: Q01DX009 (ip), vehicle: saline
  survivor count: 6 of 6
dose: 64.0 mg/kg/injection, schedule: Q01DX009 (ip), vehicle: saline
  survivor count: 6 of 6

## Cc1ccc([NH-])c([NH-])c1.[Cl][Pt+2][Cl]
dose: 2.5 mg/kg/injection, schedule: Q01DX009 (ip), vehicle: saline with Tween-80
  T/C: 135 % of control
dose: 10.0 mg/kg/injection, schedule: Q01DX009 (ip), vehicle: saline with Tween-80
  survivor count: 10 of 10
dose: 20.0 mg/kg/injection, schedule: Q01DX009 (ip), vehicle: saline with Tween-80
  survivor count: 8 of 10

## O=c1[nH]cnc2nc(/N=N/SCCO)[nH]c12
[3]
  survivor count: 5 of 10

## NC(=O)/C=C/C(=O)c1c(Cl)cccc1Cl
dose: 6.25 mg/kg/injection, schedule: Q01DX009 (ip), vehicle: saline with Tween-80
  survivor count: 10 of 10
dose: 12.5 mg/kg/injection, schedule: Q01DX009 (ip), vehicle: saline with Tween-80
  survivor count: 9 of 10
dose: 25.0 mg/kg/injection, schedule: Q01DX009 (ip), vehicle: saline with Tween-80
  survivor count: 0 of 10

## C=C1N(C)c2ccc(Cl)cc2C1(C)C
[2]
  survivor count: 8 of 10

## NNC(=O)c1ccccn1
dose: 100.0 mg/kg/injection, schedule: Q01DX009 (ip), vehicle: water
  survivor count: 6 of 6
dose: 200.0 mg/kg/injection, schedule: Q01DX009 (ip), vehicle: water
  survivor count: 0 of 6
dose: 300.0 mg/kg/injection, schedule: Q01DX009 (ip), vehicle: water
  survivor count: 0 of 6

## NC(=O)c1cc([N+](=O)[O-])c(Cl)c([N+](=O)[O-])c1Cl
dose: 16.0 mg/kg/injection, schedule: Q01DX009 (ip), vehicle: Klucel (hydroxypropylcellulose) (HPC)
  survivor count: 8 of 10

## O=C(O)CC1(CC(=O)O)CCCCC1
[4]
  survivor count: 10 of 10

## CC(C)(O)C(C)(O)c1cccc(Cl)c1 (centres undefined)
[5]
  survivor count: 10 of 10
[2]
  survivor count: 9 of 10

## CC(=O)OCc1c(O)c2c(c(O)c1COC(C)=O)C(=O)C=CC2=O
dose: 50.0 mg/kg/injection, schedule: Q01DX009 (ip), vehicle: Klucel (hydroxypropylcellulose) (HPC)
  survivor count: 10 of 10

## C1OCN2CSCC12 (centres undefined)
[4]
  T/C: 126 % of control
[6]
  T/C: 135 % of control [8 of 10 alive]

## CN(C)CCOCCOC(=O)N1c2ccccc2Sc2ccccc21
[1]
  survivor count: 8 of 10

## Cc1cc(C)c(NC(=O)Nc2ccccc2)c(C)c1
[5]
  survivor count: 10 of 10
[2]
  survivor count: 7 of 10
[3]
  survivor count: 5 of 10

## CCOC(=O)c1[nH]c(C#N)c(C(=O)OCC)c1C
dose: 100.0 mg/kg/injection, schedule: Q01DX009 (ip), vehicle: saline with Tween-80
  survivor count: 10 of 10
[4]
  survivor count: 10 of 10
[6]
  survivor count: 10 of 10
